Reference: paper doi:10.1101/2020.01.09.900407

Chains of the proteins cited; added tags and fusions are not shown. Lines headed by an entry give the natural chain unless they say otherwise; changes in a name come on top.
UniProt Q99MQ3: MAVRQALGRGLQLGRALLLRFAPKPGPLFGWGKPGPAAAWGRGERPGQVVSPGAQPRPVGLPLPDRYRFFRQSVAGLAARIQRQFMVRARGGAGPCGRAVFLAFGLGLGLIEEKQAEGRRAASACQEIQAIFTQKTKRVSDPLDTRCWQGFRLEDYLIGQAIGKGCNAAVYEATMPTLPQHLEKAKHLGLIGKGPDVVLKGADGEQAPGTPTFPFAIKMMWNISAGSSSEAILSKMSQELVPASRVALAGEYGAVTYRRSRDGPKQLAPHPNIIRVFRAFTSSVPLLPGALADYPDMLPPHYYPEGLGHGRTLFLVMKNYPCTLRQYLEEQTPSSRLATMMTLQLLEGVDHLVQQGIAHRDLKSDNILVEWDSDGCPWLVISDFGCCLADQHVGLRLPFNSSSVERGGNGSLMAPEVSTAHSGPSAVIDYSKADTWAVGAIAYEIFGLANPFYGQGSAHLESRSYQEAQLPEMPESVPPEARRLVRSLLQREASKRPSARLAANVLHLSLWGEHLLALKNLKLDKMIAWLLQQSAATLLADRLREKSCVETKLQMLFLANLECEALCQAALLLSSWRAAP

Molecular target: T1, ECSIT (mouse (endogenous in cortex)) (UniProt Q9QZH6)
T1 sequence: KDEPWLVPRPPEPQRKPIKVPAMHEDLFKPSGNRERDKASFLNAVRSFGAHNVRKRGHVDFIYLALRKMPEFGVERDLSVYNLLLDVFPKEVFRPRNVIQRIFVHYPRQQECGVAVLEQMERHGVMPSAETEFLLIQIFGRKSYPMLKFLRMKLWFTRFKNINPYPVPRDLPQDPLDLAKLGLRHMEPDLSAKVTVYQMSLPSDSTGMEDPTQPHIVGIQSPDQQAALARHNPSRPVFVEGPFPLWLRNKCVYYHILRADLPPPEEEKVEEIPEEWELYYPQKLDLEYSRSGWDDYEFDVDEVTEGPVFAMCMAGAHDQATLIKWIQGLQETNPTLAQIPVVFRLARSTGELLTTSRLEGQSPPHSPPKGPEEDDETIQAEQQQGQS
Test: co-IP

**Q.** Which binding does the source give for “full-length (FL-)PINK1 (from UniProt Q99MQ3)” here?
**A.** The binding was “binds”.

These are yes or no findings as the source states them, for the method shown. Binding seen in cells or lysates may run through a third protein. Binding can be weak; no strength is given.
